From paper PMC9769811

Key:
[1] = target: MfpB, M-PFC fusion from pUAB300-mfpB (M. smegmatis); assay: split reporter
[2] = target: ATPase domain of Topo N, M-PFC fusion from pUAB300-Topo N (M. smegmatis); assay: split reporter

B1: Mycobacterium fluoroquinolone resistance protein A (MfpA), M-PFC fusion from pUAB400-mfpA (protein, UniProt A0QSY0 1-191)
chain: MRIGANGDETVWADEEFAGRDFRDEDLSRIRTERVVFTECDFSGVDLSESEHHGSAFRNCTFRRSTIWHSTFTNCSLLGSVFTECRIRPVTFVECDFTLAVLGGCDLRAVDLSDCRLREVSLVGADLRKAVLRRADLTGSRVQDARLEEADLRGTRVDPTFWTTAKVRGAKIDIEQALAYAAAHGLAVHGG
binding [1]: binds | binding [2]: no binding

Results are given in words; binding and its absence hold for the method and conditions named. Binding seen in cells or lysates may run through a third protein. For some assays here: A result given as binding can be weak or reduced; the word gives no strength. Tags and fused reporters may be left off the sequences shown.
